# Article PMC9133052
# Amino acid sequences for entries named in this document (tags omitted).
# UniProt Q4V8G6: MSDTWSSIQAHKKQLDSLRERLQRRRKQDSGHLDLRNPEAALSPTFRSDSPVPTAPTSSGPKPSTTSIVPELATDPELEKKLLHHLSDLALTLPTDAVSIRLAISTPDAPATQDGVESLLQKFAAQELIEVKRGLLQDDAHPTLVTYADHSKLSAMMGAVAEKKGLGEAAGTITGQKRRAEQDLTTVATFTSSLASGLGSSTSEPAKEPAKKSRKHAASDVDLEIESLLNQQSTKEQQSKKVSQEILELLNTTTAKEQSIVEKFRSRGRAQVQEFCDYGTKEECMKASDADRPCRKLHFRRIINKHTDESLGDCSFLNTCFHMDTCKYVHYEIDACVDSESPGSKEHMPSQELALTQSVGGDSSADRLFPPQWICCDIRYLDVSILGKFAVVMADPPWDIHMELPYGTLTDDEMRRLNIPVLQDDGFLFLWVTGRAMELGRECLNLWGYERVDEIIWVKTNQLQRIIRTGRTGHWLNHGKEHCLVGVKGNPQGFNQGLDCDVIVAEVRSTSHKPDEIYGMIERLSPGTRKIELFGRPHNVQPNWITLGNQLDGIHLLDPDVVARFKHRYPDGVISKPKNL
# UniProt P62630: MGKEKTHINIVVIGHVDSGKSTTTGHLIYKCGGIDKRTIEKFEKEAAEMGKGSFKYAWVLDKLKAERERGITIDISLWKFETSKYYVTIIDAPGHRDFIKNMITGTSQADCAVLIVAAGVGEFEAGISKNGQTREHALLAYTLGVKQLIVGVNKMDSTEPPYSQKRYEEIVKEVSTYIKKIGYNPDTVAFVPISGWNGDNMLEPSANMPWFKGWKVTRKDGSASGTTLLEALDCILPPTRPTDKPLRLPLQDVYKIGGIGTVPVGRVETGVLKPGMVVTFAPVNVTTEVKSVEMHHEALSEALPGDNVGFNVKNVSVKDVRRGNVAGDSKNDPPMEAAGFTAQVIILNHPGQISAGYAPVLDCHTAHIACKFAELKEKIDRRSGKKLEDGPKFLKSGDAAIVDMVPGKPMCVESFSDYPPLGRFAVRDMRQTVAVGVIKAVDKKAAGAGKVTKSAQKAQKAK
# Where two headings read alike, the source gives them in different places. These are yes or no findings as the source states them, for the method shown. For some assays here: In cells and extracts the contact can be indirect. Some binding calls cover weakened binding; strength is not graded here. For some assays here: Where a sequence is shown, tags or fusion partners need not be part of it.
# T1: His-tagged Ythdf2 (UniProt E9PU11)
# T1 sequence: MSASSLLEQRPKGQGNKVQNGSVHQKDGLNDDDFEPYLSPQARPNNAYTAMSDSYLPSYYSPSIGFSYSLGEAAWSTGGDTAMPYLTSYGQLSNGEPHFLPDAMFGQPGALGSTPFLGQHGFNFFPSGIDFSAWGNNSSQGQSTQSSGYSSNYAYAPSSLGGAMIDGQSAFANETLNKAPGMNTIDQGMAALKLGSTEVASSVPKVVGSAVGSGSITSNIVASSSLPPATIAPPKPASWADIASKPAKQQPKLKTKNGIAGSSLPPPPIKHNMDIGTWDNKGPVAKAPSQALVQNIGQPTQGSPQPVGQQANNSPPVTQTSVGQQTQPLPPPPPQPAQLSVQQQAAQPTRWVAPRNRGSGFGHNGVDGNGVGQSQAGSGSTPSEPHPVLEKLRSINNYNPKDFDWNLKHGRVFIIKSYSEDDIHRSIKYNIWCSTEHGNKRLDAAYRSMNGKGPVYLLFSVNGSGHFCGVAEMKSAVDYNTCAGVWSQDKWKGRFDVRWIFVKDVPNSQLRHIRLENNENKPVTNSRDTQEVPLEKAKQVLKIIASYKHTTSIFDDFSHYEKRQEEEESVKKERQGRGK
# Experiments:
# [1] = molecular target: Mettl3 (rat (endogenous in BMSCs)) (UniProt Q4V8G6); assay: co-IP; endogenous proteins immunoprecipitated from rat BMSC lysates (with or without chondrogenic induction) with Nsun4 or Mettl3 antibody and corresponding IgG, Pierce Direct Magnetic IP/Co-IP kit, western blot
# His-tagged Ythdf2 = molecular target: T1, His-tagged Ythdf2; assay: SPR; Biacore 8K, 25 °C, His-tagged protein captured on NTA chip (100-150 RU), analyte proteins without His tag 3-100 nM injected 100 s, dissociation 150 s, HBS-P+ running buffer; both purified
# [2] = molecular target: Mettl3 (rat (endogenous in BMSCs)) (UniProt Q4V8G6); assay: co-IP; endogenous proteins immunoprecipitated from rat BMSC lysates (with or without chondrogenic induction) with Nsun4 or Mettl3 antibody and corresponding IgG, Pierce Direct Magnetic IP/Co-IP kit, western blot; remark: listed apart in the source
binding [2],Molecule,also measured
,eEF1α-1 (from UniProt P62630 1-462),binding [1]: binds
,eEF1α-1 (His tag cleaved) (from UniProt P62630 1-462),binding (His-tagged Ythdf2): binds
binds,"Ythdf1 (protein, UniProt Q4V8J6 1-559) MSATSVDPQRTKGQENKVQNGSLHQKDAVHDNDFEPYLSGQSNPSNSYPSMSDPYLSSYYPPSIGFPYSLSEAPWSTAGDPPIPYLTTYGQLSNGDHHFMHDAVFGQPGGLGNNIYQHRFNFFPENPAFSAWGTSGSQGQQTQSSAYGSSYTYPPSSLGGTVVDGQTGFHSDTLNKAPGMNSLEQGMVGLKIGDVTTSAVKTVGSVVNSVALTGVLSGNGGTNVNMPVSKPTSWAAIASKPAKPQPKMKTKSGPIVGGTLPPPPIKHNMDIGTWDNKGPAPKASAPQQTPSPQAAPQPQQVAQPLPVQPPPLVQPQYQSPQQPLQPRWVAPRNRNAAFGQSGGANSDSNSVGSAQPTSAPSVESHPVLEKLKAAHSYNPKEFDWNLKSGRVFIIKSYSEDDIHRSIKYSIWCSTEHGNKRLDGAFRSMSSKGPVYLLFSVNGSGHFCGVAEMKSPVDYGTSAGVWSQDKWKGKFDVKWIFVKDVPNNQLRHIRLENNDNKPVTNSRDTQEVPLEKAKQVLKIIASYKHTTSIFDDFSHYEKRQEEEEVVRKERQNRNKQ",
binds,"Ythdf2 (protein, UniProt E9PU11 1-579) MSASSLLEQRPKGQGNKVQNGSVHQKDGLNDDDFEPYLSPQARPNNAYTAMSDSYLPSYYSPSIGFSYSLGEAAWSTGGDTAMPYLTSYGQLSNGEPHFLPDAMFGQPGALGSTPFLGQHGFNFFPSGIDFSAWGNNSSQGQSTQSSGYSSNYAYAPSSLGGAMIDGQSAFANETLNKAPGMNTIDQGMAALKLGSTEVASSVPKVVGSAVGSGSITSNIVASSSLPPATIAPPKPASWADIASKPAKQQPKLKTKNGIAGSSLPPPPIKHNMDIGTWDNKGPVAKAPSQALVQNIGQPTQGSPQPVGQQANNSPPVTQTSVGQQTQPLPPPPPQPAQLSVQQQAAQPTRWVAPRNRGSGFGHNGVDGNGVGQSQAGSGSTPSEPHPVLEKLRSINNYNPKDFDWNLKHGRVFIIKSYSEDDIHRSIKYNIWCSTEHGNKRLDAAYRSMNGKGPVYLLFSVNGSGHFCGVAEMKSAVDYNTCAGVWSQDKWKGRFDVRWIFVKDVPNSQLRHIRLENNENKPVTNSRDTQEVPLEKAKQVLKIIASYKHTTSIFDDFSHYEKRQEEEESVKKERQGRGK",
binds,"Ythdf3 (protein, UniProt D3ZIY3 1-585) MSATSVDQRPKGQGNKVSVQNGSIHQKDAVNDDDFEPYLSSQTNQNNSYPPMSDPYMPSYYAPSIGFPYSLGEAAWSTAGDQPMPYLTTYGQMSNGEHHYIPDGVFSQPGALGNTPPFLGQHGFNFFPGNADFSTWGTSGSQGQSTQNSAYSSSYGYPPSSLGRAITDGQAGFGNDTLSKVPGISSIEQGMTGLKIGGDLTAAVTKTVGTALSSSGMTSIATNNVPPVSSAAPKPTSWAAIARKPAKPQPKLKPKGSVGIGGSAVPPPPIKHNMNIGTWDEKGSVVKAPPTQPVLPPQTIIQQPQPLIQPPPLVQSQLPQQQPQPPQPQQQQGPQPQAQPHQVQSQQPQLQNRWVAPRNRGTGFNQNNGTGSENFGLGVVPVSASPSSVEVHPVLEKLKAINNYNPKDFDWNLKNGRVFIIKSYSEDDIHRSIKYSIWCSTEHGNKRLDAAYRSLNGKGPLYLLFSVNGSGHFCGVAEMKSVVDYNAYAGVWSQDKWKGKFEVKWIFVKDVPNNQLRHIRLENNDNKPVTNSRDTQEVPLEKAKQVLKIIATFKHTTSIFDDFAHYEKRQEEEEAMRRERNRNKQ",
